Data source: PubChem BioAssay AID652243 (Drosophila RNAi Screening Center, 2013)
Assay: 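Knock-downs that decrease or increase androgen receptor reporter signal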 (primary screen). System: Drosophila S2R+ cells. Knock-down reagent: long dsRNA against Drosophila genes. Timing: 72 h (48 h, then 24 h hormone). Challenge: synthetic androgen R1881 at 10 nM for 24 h. Detection: 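Per-well raw luminescence of the androgen-driven firefly reporter and of the Renilla control, two replicates each, without normalisation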. Scale: firefly reporter light: higher = more light from androgen-responsive reporter; Renilla control light: higher = more constitutive control signal (cell number, transfection). Active means: 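Hit when the log firefly-to-Renilla ratio dropped or increased by a fixed fold versus the mean of GFP or LacZ controls across duplicate plates; lowering cut given as 1.5 and as 3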. Calls: active = hit: reporter lowered or raised; inactive = no hit.
The screen tested about 24,000 reagents; shown is an unselected part of those with a known target gene and a result. Over the whole deposit, 246 (1%) were called active. 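Plates not normalised; calls are printed but the firefly/Renilla ratio behind them is not deposited; fold cut for lowering reported inconsistently.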 Raw values vary from plate to plate and are shown uncorrected. Names joined by + are all predicted targets of the reagent. Not stated in the record: the amount of reagent.

Target gene	PubChem SID	firefly reporter light, replicate 1	firefly reporter light, replicate 2	Renilla control light, replicate 1	Renilla control light, replicate 2	activity call
CG14244	SID104194531	2.89e5	2.30e5	2.96e6	2.33e6	inactive
Nepl17 (Neprilysin-like 17)	SID104194672	2.09e5	2.75e5	2.37e6	3.32e6	inactive
CG5084	SID104186705	38515	83243	6.91e5	6.91e5	inactive
CG5084	SID104206194	2.70e5	3.00e5	3.82e5	6.46e5	inactive
Syn1 + CG7370	SID104202132	8.79e5	9.07e5	1.56e6	2.22e6	inactive
Syn1 + CG7370	SID104206176	2.76e5	3.00e5	6.06e5	7.53e5	inactive
CG1468	SID104197738	1.53e5	1.28e5	9.90e5	8.62e5	inactive
CG1468	SID104204083	1.20e6	1.29e6	1.11e6	1.27e6	inactive
fs(1)Ya (female sterile (1) Young arrest)	SID104202415	7.65e5	1.03e6	1.48e6	1.71e6	inactive
CG13318	SID104194373	84862	1.36e5	1.93e6	1.91e6	inactive
CG4282	SID104186657	7.51e5	4.66e5	1.01e6	9.30e5	inactive
Lrpprc2 (Leucine-rich pentatricopeptide repeat containing 2)	SID104198397	76544	60491	7.98e5	4.67e5	inactive
Lrpprc2 (Leucine-rich pentatricopeptide repeat containing 2)	SID104208295	7.13e5	6.77e5	1.22e6	1.38e6	inactive
Myc	SID104202711	6.11e5	5.02e5	1.79e5	1.86e5	inactive
Muc26B (Mucin 26B)	SID104182114	2.69e5	1.79e5	2.30e6	1.85e6	inactive
Muc26B (Mucin 26B)	SID104206684	5.26e5	4.39e5	2.28e6	1.61e6	inactive
Muc26B (Mucin 26B)	SID104216657	4.65e5	1.92e5	1.57e6	5.73e5	inactive
CG16935	SID104186430	68272	1.13e5	1.25e6	1.25e6	inactive
Fst (Frost)	SID104196283	88279	86223	3.65e5	7.27e5	inactive
Fst (Frost)	SID104203222	6.63e5	3.02e5	4.92e5	4.52e5	inactive
IKKepsilon (I-kappaB kinase epsilon)	SID104183342	77101	79154	9.26e5	7.46e5	inactive
IKKepsilon (I-kappaB kinase epsilon)	SID104214371					inactive
IKKepsilon (I-kappaB kinase epsilon)	SID104214372					inactive
CG43312	SID104191351	4.86e5	6.13e5	5.00e5	6.07e5	inactive
CG42784	SID104182326	1.07e6	1.15e6	1.67e6	3.16e6	inactive
CG42784	SID104201792	9.93e5	8.11e5	1.74e6	1.35e6	inactive
CG42784	SID104202163	2.95e5	5.46e5	4.40e5	4.73e5	inactive
CG42784	SID104202357	8.00e5	1.10e6	4.61e5	7.70e5	inactive
CG42784	SID104204359	3.26e5	4.17e5	5.09e5	5.37e5	inactive
CG42784	SID104208275	4.19e5	3.75e5	1.43e6	1.29e6	inactive
CG15760	SID104199517	3.49e5	4.62e5	2.58e6	2.55e6	inactive
CG15760	SID104204488	5.19e5	4.29e5	1.11e6	1.19e6	inactive
CG11349	SID104187971	99260	99921	1.35e6	1.26e6	inactive
CG11349	SID104206107	2.54e5	3.40e5	5.96e5	7.32e5	inactive
CG7675	SID104196072	96596	72885	6.49e5	6.38e5	inactive
CG7675	SID104205441	3.92e5	3.52e5	5.81e5	4.23e5	inactive
CR11023 (pseudo)	SID104180094	99060	69310	5.44e5	5.79e5	inactive
CR11023 (pseudo)	SID104206810	3.65e5	8.13e5	1.17e6	2.10e6	inactive
CG10343	SID104181833	1.71e5	1.78e5	1.77e6	1.77e6	inactive
CG10343	SID104206284	2.00e5	1.93e5	4.30e5	4.49e5	inactive
CG31562 (retired record)	SID104192065	18641	31510	6.27e5	6.39e5	inactive
CG31562 (retired record)	SID104192066	56841	68593	1.15e6	1.37e6	inactive
Prosalpha4 (Proteasome alpha4 subunit)	SID104200063	3.25e5	3.60e5	2.96e6	2.42e6	inactive
Prosalpha4 (Proteasome alpha4 subunit)	SID104203833	4.53e5	3.17e5	4.92e5	4.42e5	inactive
CG13438	SID104186190	38198	36675	6.95e5	8.66e5	inactive
CG42560 + CG42559	SID104201509	6.12e5	7.33e5	4.26e5	4.15e5	inactive
CG31230	SID104201684	6.38e5	7.10e5	2.44e6	1.89e6	inactive
CG31230	SID104205222	6.28e5	6.05e5	7.74e5	6.80e5	inactive
CG15717	SID104199476	4.78e5	5.98e5	3.50e6	4.15e6	inactive
Mkrn1 (Makorin 1)	SID104191662	3.66e5	5.86e5	1.27e6	1.83e6	inactive
Mkrn1 (Makorin 1)	SID104204024	2.68e5	3.54e5	3.20e5	4.04e5	inactive
Or22b (Odorant receptor 22b)	SID104180557	1.66e5	1.26e5	9.35e5	9.90e5	inactive
CG5011 + CG43349	SID104207728	4.84e5	5.89e5	1.57e6	1.46e6	inactive
Spn88Ea (Serpin 88Ea)	SID104196853	67085	1.33e5	2.36e6	2.65e6	inactive
Spn88Ea (Serpin 88Ea)	SID104206451	5.48e5	3.17e5	1.71e6	1.32e6	inactive
Strica (Ser/Thr-rich caspase)	SID104184712	3.22e5	3.15e5	2.22e6	1.53e6	inactive
G9a	SID104198411	2.57e5	3.17e5	3.05e6	2.40e6	inactive
l(2)dtl (lethal-(2)-denticleless)	SID104184489	3.94e5	3.34e5	1.16e6	1.06e6	inactive
l(2)dtl (lethal-(2)-denticleless)	SID104204565	2.25e5	1.76e5	7.43e5	6.18e5	inactive
CG15549	SID104194879	2.54e5	2.47e5	1.71e6	3.37e6	inactive
asp (abnormal spindle)	SID104196695	52225	75933	4.01e5	4.24e5	inactive
asp (abnormal spindle)	SID104214168					inactive
asp (abnormal spindle)	SID104214169					inactive
CG8850	SID104187079	2.27e5	2.18e5	1.57e6	1.51e6	inactive
CG8850	SID104204509	3.30e5	2.66e5	9.21e5	7.70e5	inactive
CG10864	SID104194065	87732	1.86e5	9.13e5	1.89e6	inactive
CG12692	SID104197673	3.93e5	3.64e5	2.61e6	1.94e6	inactive
CG32762	SID104198090	4.10e5	4.16e5	3.37e6	2.84e6	inactive
CG32762	SID104203147	7.46e5	7.22e5	9.81e5	1.16e6	inactive
CG14464	SID104187552	60248	1.28e5	8.33e5	9.69e5	inactive
CG5805	SID104195670	1.41e5	71462	7.50e5	5.42e5	inactive
CG5805	SID104203102	5.08e5	8.59e5	5.67e5	5.95e5	inactive
CG5805	SID104216650	5.80e5	3.39e5	1.59e6	1.29e6	inactive
lost	SID104191794	1.11e5	1.13e5	2.22e5	2.49e5	inactive
lost	SID104192026	22161	23261	2.05e5	1.99e5	inactive
lost	SID104201589	1.24e6	1.31e6	1.13e6	1.13e6	inactive

As entered above:
Under “firefly reporter light, replicate 2”, fs(1)Ya (female sterile (1) Young arrest) [SID104202415] has 1.03e6
IKKepsilon (I-kappaB kinase epsilon) [SID104183342], firefly reporter light, replicate 2 = 79154
Under “activity call”, CG11349 [SID104206107] reads inactive
CG42560 + CG42559 [SID104201509], firefly reporter light, replicate 2 → 7.33e5
Under “firefly reporter light, replicate 2”, CG8850 [SID104204509] has 2.66e5
For “firefly reporter light, replicate 2”, lost [SID104192026] is entered as 23261
